The assay deals with T1, CG2941-Flag (Drosophila melanogaster) (UniProt Q9W4N9).
T1 sequence: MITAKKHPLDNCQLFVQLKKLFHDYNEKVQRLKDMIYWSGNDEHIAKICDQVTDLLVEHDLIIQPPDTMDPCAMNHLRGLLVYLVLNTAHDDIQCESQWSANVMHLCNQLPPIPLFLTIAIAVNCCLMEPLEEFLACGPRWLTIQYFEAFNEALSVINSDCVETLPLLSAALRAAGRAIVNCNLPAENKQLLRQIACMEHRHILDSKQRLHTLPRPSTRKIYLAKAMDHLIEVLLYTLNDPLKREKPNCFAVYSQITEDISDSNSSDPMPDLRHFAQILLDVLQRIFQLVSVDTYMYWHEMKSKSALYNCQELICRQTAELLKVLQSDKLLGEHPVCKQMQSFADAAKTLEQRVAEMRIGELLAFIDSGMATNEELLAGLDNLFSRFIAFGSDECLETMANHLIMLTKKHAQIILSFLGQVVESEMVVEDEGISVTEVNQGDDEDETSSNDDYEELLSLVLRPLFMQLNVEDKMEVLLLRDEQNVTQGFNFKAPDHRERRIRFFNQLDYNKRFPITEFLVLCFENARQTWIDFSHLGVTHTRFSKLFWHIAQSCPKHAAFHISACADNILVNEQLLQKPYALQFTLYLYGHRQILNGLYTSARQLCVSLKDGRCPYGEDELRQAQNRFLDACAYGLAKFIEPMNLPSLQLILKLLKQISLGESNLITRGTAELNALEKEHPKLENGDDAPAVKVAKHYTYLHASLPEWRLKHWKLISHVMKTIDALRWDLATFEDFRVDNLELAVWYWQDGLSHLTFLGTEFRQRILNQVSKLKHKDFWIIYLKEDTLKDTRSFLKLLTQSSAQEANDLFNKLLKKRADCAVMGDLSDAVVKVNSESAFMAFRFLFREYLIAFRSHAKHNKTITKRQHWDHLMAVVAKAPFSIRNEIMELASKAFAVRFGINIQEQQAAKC
In words: co-IP; total lysate of S2 cells transfected with CG2941-Flag (mock transfected cells in parallel) on anti-FLAG agarose beads, 4C; western blot with anti-SMN. On the technique in general: In western blotting, separated proteins are transferred to a membrane and probed.

No constants are given. Whether binding was seen depends on the method and setting. Binding seen in cells or lysates may run through a third protein. Some entries that bind do so weakly or less than the wild type. Where a sequence is shown, tags or fusion partners need not be part of it.

B1: endogenous SMN of Drosophila S2 cells (protein, UniProt Q9VV74 1-226)
chain: MSDETNAAVWDDSLLVKTYDESVGLAREALARRLADSTNKREEENAAAAEEEAGEISATGGATSPEPVSFKVGDYARATYVDGVDYEGAVVSINEEKGTCVLRYLGYENEQEVLLVDLLPSWGKRVRREQFLIAKKDEDEQLSRPKASAGSHSKTPKSSRRSRISGGLVMPPMPPVPPMIVGQGDGAEQDFVAMLTAWYMSGYYTGLYQGKKEASTTSGKKKTPKK
For B1, the binding result was “binds”.

For the origin of these results see article PMC6385987.
